Experimental data as given in patent US10662150B2, “Sulfonic acid salt composition and use thereof for color stabilization” (L. BRÜGGEMANN GMBH & CO. KG, priority 2016, dated 2020).

Assay: Color stabilization of superabsorbent polymers (Hunter b-value)
Details: for Increase in b-value (after 26 days) in %: 100 g SAP treated with 3 g of a 1% solution, stored at 60° C. and 90% relative humidity

Row | Compound | Increase in b-value (after 26 days) in % | b-value (day 0) (SAP powder treated with 3 g of a 1% solution per 100 g, Hunter b-value before storage)
1 | 2-hydroxy-2-sulfonatoacetic acid disodium salt [reference compound] | +16.7% | 
2 | Mixed Magnesium-Zinc-Salt of 2-Hydroxy-2-Sulfonatoacetic Acid [Example 3] | +11.7% | 
3 | O=C([O-])C(O)S(=O)(=O)[O-].[Mg+2] (stereo not drawn) [Example 2, Magnesium-Salt of 2-Hydroxy-2-Sulfonatoacetic Acid] |  | 3.01
